From PubChem BioAssay AID1347426 (Functional Genomics Laboratory (NCATS/FGL), 2020) come the findings set out here.

Hit rate of the full screen: of about 31,000 sequences, about 1,400 (4.5%) were called active.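 Rule for the calls: active = median seed-adjusted z-score above 1 or below -1; inactive = the rest.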 Some of the results follow.

The assay in a line: Novel Modifiers of Survival Motor Neuron (SMN) Protein: Gene Identification via Genome-wide siRNA Screen.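 Note: luminescence tracks full-length SMN protein made from the SMN2 reporter.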 Conditions: HEK293T SMN2-luciferase reporter, siRNA knockdown, 72 h; actives lie on both sides. A digest of the protocol: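 Steps: spot 1 pmol siRNA, add Lipofectamine RNAiMax in serum-free DMEM, seed HEK293T SMN2–luciferase reporter cells; incubate 72 h at 37 °C; add ONE-Glo; normalize luminescence to control siRNA, log10, MAD. Candidates: |MAD| > 1.0.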
As for GGACAAUCCCGAAUAUGUUTT against CRLS1, the median seed-adjusted z-score is inactive: 0.555.
Turning to GCAACGAAGUGGUGAAUCUTT against UPF2, the median seed-adjusted z-score was inactive: -0.376.
Regarding GGGCGAGCAUUUUCGAGAATT against USP7, the median seed-adjusted z-score is inactive: 0.105.
Take CGGGAGCAGUUUAACGAAUTT against RCN1: the median seed-adjusted z-score was inactive: 0.236.
For the sequence CGUUUGUACCUAUCAGUUUTT against DONSON, the median seed-adjusted z-score was inactive: -0.882.
Take UGAUUGCUGCGGACCGCUATT against MC2R: the median seed-adjusted z-score is inactive: 0.
CGAUAUAUCUCAUAUAACATT against ENPEP: the median seed-adjusted z-score was inactive: 0.666.
Then CAACUGAUGAGGUCGAGAATT against ZNF638, with inactive: 0.63.
For CAGUGAUGACAAUAAACAATT against PCDHA6, the median seed-adjusted z-score was inactive: 0.419.
In the case of GGUUAGAAGCUCAAGGGUATT against BRD1, the median seed-adjusted z-score is inactive: 0.0644.
On to GCACAAGUCCAGUCUCUGATT against KRT39, for which the median seed-adjusted z-score is inactive: 0.161.
As for CCGUUACCCUUGACCUGGATT against KIF7, the median seed-adjusted z-score is inactive: 0.0274.
As for GCUUCAUUGAGUACGAGAATT against PUF60, the median seed-adjusted z-score is active: 2.26.
Turning to ACCUAGAGCCGUUUCUAAATT against CD14, the median seed-adjusted z-score was inactive: 0.0723.
With CCUCAAAGCUUGUAUUCCATT against KCNMB4, the median seed-adjusted z-score is inactive: 0.
In the case of GGCUCUUCUUGGAUAGAGATT against EOMES, the median seed-adjusted z-score was inactive: -0.0248.
As to CAUCGGCCUGAGAACAAUATT against ALPK2, the median seed-adjusted z-score was inactive: -0.154.
For CUAAGUACUUUGAAUCCAATT against CD48, the median seed-adjusted z-score was inactive: -0.0981.
On to AGAGGUUUGGCAGAAAUACTT against NPFF, for which the median seed-adjusted z-score was inactive: -0.631.
In the case of CUAUCCCUGUGAUCAAUGUTT against ZNF271, the median seed-adjusted z-score is inactive: 0.484.
As for CGGUGAAAGUGCGGGAACATT against ATOH1, the median seed-adjusted z-score was inactive: -0.374.
On to GAGACAACAUGAAUGACAATT against CHGB, for which the median seed-adjusted z-score was active: -1.29.
As for GGCUAAAUGUGAGAAUCCATT against IL13RA1, the median seed-adjusted z-score is inactive: 0.269.
To CUACCGCAACAUCUGGAAATT against SLC22A17 belongs inactive: -0.149.
Turning to AGACAGACCUGCGAACAGATT against RND1, the median seed-adjusted z-score is inactive: -0.393.
To CCAUGCAAAUGAAAUGUAATT against IGF2 belongs inactive: -0.0306.
For the sequence GCCCGUAAUUUAUCGCGCUTT against PTGDR, the median seed-adjusted z-score is inactive: -0.158.
To ACAGAGCUAGUGUCCAAAATT against RXRB belongs inactive: 0.147.
As to AGACAAACGAUGAUAUGAATT against VASN, the median seed-adjusted z-score was inactive: 0.213.
With GCUUUUCGGCCCUGACUUATT against SERPINF2, the median seed-adjusted z-score is inactive: 0.629.
In the case of GCAUAUUACAUCACCACGATT against SGMS1, the median seed-adjusted z-score is inactive: -0.287.
Then GGCUCAUUGAGACGACUGATT against RCADH5, with inactive: -0.158; and GGAGAUAGCUAGACCUCUUTT against NES, with inactive: 0.613.
For CCCUUGUUGCAAGAAGAAATT against MICB, the median seed-adjusted z-score is inactive: 0.162.
Consider CACGCACCUUGGAAUUGAATT against CSNK1D, for which the median seed-adjusted z-score was inactive: 0.202.
To CUACCGGAAUGAAUCUCUATT against PIK3R1 belongs inactive: 0.196; to CCAUGUUCCAACAUCGGUATT against RLF, inactive: 0.
On to AGCUGGAUAUGUUCCCAGATT against DAO, for which the median seed-adjusted z-score was inactive: -0.00887.
For GACCAGAUGUGGACAAUCATT against TAF6, the median seed-adjusted z-score is active: -1.36.
To GCAUAUCUGAGGUGAAUCATT against SEC23B belongs inactive: 0.48; to UGACCGAUGUCUUCCUUAUTT against RHOQ, inactive: -0.328; to GAACAUCCUGUUUCGCUUUTT against GAL3ST3, inactive: -0.54.
On to UCACAGGCUUUGAAACCAATT against ADCK4, for which the median seed-adjusted z-score was inactive: -0.181.
With CUCAAGUAAUCAUUCCCAATT against HOMER2, the median seed-adjusted z-score is inactive: 0.522.
As to GUCACAAGAUGGUCAAAAATT against CTNND2, the median seed-adjusted z-score was inactive: -0.0491.
As for GUGACAAAACUGACGUGAATT against IL1R2, the median seed-adjusted z-score is inactive: 0.429.
For GCUUGUUGUUUGGUAUUCATT against CYP7B1, the median seed-adjusted z-score was inactive: 0.598.
As for CAUUGUCUUUGCUUACAUUTT against GRIA3, the median seed-adjusted z-score is inactive: -0.358.
CUUCCUUCCCUAUUAAAAUTT against HLA-A: the median seed-adjusted z-score was inactive: 0.189.
For the sequence GCAGAGUCACAGGAACUCATT against TRIM26, the median seed-adjusted z-score is inactive: 0.
Take CAUGCUGAACGUAAACUAUTT against CEACAM1: the median seed-adjusted z-score was inactive: -0.211.
On to GCAACAUAAUGAAAUCACUTT against MMP14, for which the median seed-adjusted z-score is inactive: -0.0145.
Turning to GGUGGACCAUGUCAACGAUTT against GLIS2, the median seed-adjusted z-score is inactive: 0.206.
Consider CAGCACACGUCAUUUCUUATT against GPR44, for which the median seed-adjusted z-score was inactive: -0.527.
Regarding GAGUUUUUCUAUGACAUCATT against RPH3A, the median seed-adjusted z-score was inactive: 0.232.
For the sequence GGAGGUACGUGGAAAAGCATT against ORC3L, the median seed-adjusted z-score is inactive: -0.254.
Turning to GGCUCGUCAUUGGAGGUGATT against TRAF1, the median seed-adjusted z-score is inactive: 0.518.
On to CAAUAAAACUGACUCUCAATT against ETFB, for which the median seed-adjusted z-score was inactive: 0.0669.
As for UGCCCGUCAUUGUCAACAATT against KCNC3, the median seed-adjusted z-score is inactive: 0.279.
Consider AGAGAUGCUGGAACCUUUUTT against PCDHB13, for which the median seed-adjusted z-score is inactive: -0.293.
Then GACCUACCCAUGUUAUUCATT against HIVEP2, with inactive: 0.294.
For the sequence GGCGCAUUAUGUGCUACUATT against GPR44, the median seed-adjusted z-score was inactive: -0.527.
Turning to GGCCGAUAUGGAGAAGUAUTT against BMPR1A, the median seed-adjusted z-score was inactive: 0.797.
Take CGAAAACAGGAGAUCAUUATT against CAMK2G: the median seed-adjusted z-score was inactive: -0.107.
To GGUUGUAACUGCAAGAUCATT against TIMP3 belongs active: -1.05; to GGCGGCAAGACGUAAGGAATT against SEMA3B, inactive: 0.000251.
To AGAUCCUGGAAUAUAUAAATT against MSRB3 belongs inactive: -0.218.
On to CAGACUACCCUGAUAGUUUTT against FLVCR1, for which the median seed-adjusted z-score is inactive: 0.197.
Then CGGCUAGAGAUGAUCGCUATT against UBE3A, with inactive: 0.0949.
